Experiment: Release kinetics of local anesthetic from hyaluronic acid gel by dialysis, UV-visible spectrophotometry
Type: physicochemical
Settings: HA 3×10^6 Da, X=0.12, 20 mg/g; for mass percentage of local anesthetic in the hyaluronic acid gel: initial 3 mg/g, 37° C., physiological saline
Protocol: The initial concentrations of mepivacaine or lidocaine are 3 mg/g. The protocol for studying the release kinetics of the two local anesthetics is the same as that used in Example 5 of patent application WO 2010/015 901 in the name of Allergan. The release kinetics were, however, studied at 37° C. in physiological saline medium. Monitoring by UV-visible spectrophotometry is performed to assay the local anesthetic present in the gel. In Table 13 below, the mass percentages of lidocaine or mepivacaine in the hyaluronic acid gel measured after various dialysis times are specified.

## CCN(CC)CC(=O)Nc1c(C)cccc1C [Lidocaine, lidocaine]
3 mg/g, dialysis at 37° C. in physiological saline
  release kinetics from the hyaluronic acid gel (FIG. 1), lidocaine versus mepivacaine: comparable
Dialysis time 0 h
  mass percentage of local anesthetic in the hyaluronic acid gel: 0.293 mass %
Dialysis time 1.5 h
  mass percentage of local anesthetic in the hyaluronic acid gel: 0.160 mass %
Dialysis time 5 h
  mass percentage of local anesthetic in the hyaluronic acid gel: 0.109 mass %
Dialysis time 7 h
  mass percentage of local anesthetic in the hyaluronic acid gel: 0.103 mass %
Dialysis time 23 h
  mass percentage of local anesthetic in the hyaluronic acid gel: 0.091 mass %
Dialysis time 48 h
  mass percentage of local anesthetic in the hyaluronic acid gel: 0.084 mass %
Dialysis time 72 h
  mass percentage of local anesthetic in the hyaluronic acid gel: 0.082 mass %

Reference: patent US20200000969A1, “HYALURONIC ACID COMPOSITIONS INCLUDING MEPIVACAINE” (LABORATOIRES VIVACY, priority 2013, published 2020)
